Results reported in patent US20020132225A1, “Compositions and methods for prolonging survival of chilled platelets” (priority 2000, published 2002).
Some entries share one result that the patent states for a list of compounds. At least one compound was matched to its structure with a doubt left.

System: stimulated THP-1 cells
Experiment: In vitro phagocytic assay: phagocytosis of chilled platelets by THP-1 cells (FACS)
Type: cell-based, human
Conditions: activated THP1 cells
Description: As a first step toward evaluation of this strategy, we have developed an in vitro phagocytic assay to study the interaction between chilled platelets and mononuclear phagocytes. […] These measurements can be made with a fluorescence-activated cell sorter (FACS). […] None of these sugars had any effect on platelet aggregation induced by thrombin or by ristocetin. The latter result is particularly important, because it reflects platelet hemostatic function mediated by GPIb interaction with von Willebrand factor.
In these experiments (FIG. 11, 12, and 13) platelets were loaded with fluorescent dye CM-Orange, then incubated for 1 h at 22° C. (control), 4° C. (chilled) or exposed to UV (UV). Phagocytosis was quantified by measuring the incorporation of CM-orange-fluorescence (CM-Orange labeled platelets) into monocyte-sized cells. Bound versus ingested platelets were separated by labeling the cells after the phagocytic period with FITC-labeled anti-integrin-β3 (CD 61) antibodies, e.g., bound platelets will be FITC positive, ingested platelets will be negative. The uptake of control versus chilled platelets was compared. […] From this experiment, the ratio of 22° C. to 4° C. ingested platelets (CM-Orange positive) can be calculated. […]

SMILES: COC1OC(CO)C(O)C(O)C1O [α-methyl-D-mannoside]
- concentrations that inhibited phagocytosis of platelets by phagocytic cells: > 50 mM
